# According to PubChem BioAssay AID2685 (National Center for Advancing Translational Sciences (NCATS), 2010):
# This is one part of the list. Further columns of the screen follow, without active or inactive calls. The list favours compounds with an active or inconclusive main result. Words in brackets tell the shape of the fitted curve; partial curves, single points and poor fits give uncertain potencies.
# Experiment: qHTS Assay for Lipid Storage Modulators in Drosophila S3 Cells;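 as to cell number change: cells counted by Cell Tracker Red CMTPX staining in the red channel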
# Details: BODIPY lipid droplet fluorescence, 18-24 h; for cell number change: measured here: cell count max response, cells fed with added oleic acid
# Method in brief: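 Laser-scanning cytometry quantifies lipid droplet accumulation (500–530 nm total intensity; droplet/cell object ratio) in oleic acid-fed (400 uM added) Drosophila S3 cells treated with a concentration series. 20 uM Triacsin C defined 100% inhibition.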
# [1] = measured here: lipid fluorescence (Fed channel) AC50, cells fed with added oleic acid
# [2] = measured here: cell number channel AC50, cells fed with added oleic acid
SMILES,cell number change [%],AC50 [1],AC50 [2]
O=C1NC(=S)N(c2ccccc2)C(=O)/C1=C/c1ccco1,21.2,"29100 nM [rising, single point]",
Cc1ccc(-c2nc3ccc(Cl)cc3n2OC(=O)N(C)C)cc1,9.73,"146 nM [rising, full curve, poor fit]","164 nM [rising, full curve, poor fit]"
CC12CCC3C(CCC4C/C(=N/O)CCC43C)C1CCC2O (centres undefined),11.7,,
O=C(O)CCn1cc(C=C2C(=O)NC(=S)NC2=O)c(-c2ccccc2)n1,0.351,"2060 nM [falling, partial curve, poor fit]",
Cc1ccc(C(=O)C2(C)N(O)C(C)C(c3cccs3)=[N+]2[O-])cc1 (centres undefined),-21.2,"1160 nM [falling, full curve]",
CCCCC(CC)CNCC(O)c1ccccc1 (centres undefined),,"580 nM [falling, single point]",
CCOC(=O)C1C2NC(=O)N(Cc3ccccc3)C1(C)Oc1c(OC)cccc12 (centres undefined),-12.8,"1640 nM [falling, partial curve]",
CNP(=O)(Oc1ccccc1)OC12CC3CC(CC(C3)C1)C2 (centres undefined),8.62,,"6510 nM [falling, single point]"
Cc1cccc(N2C(=O)CC(=O)NC2=O)c1,-15.7,"4110 nM [falling, full curve]",
Cc1ccc(C2=NN(CCC(=O)N3CCC4(CC3)OCCO4)C(=O)CC2)cc1,16.3,"820 nM [falling, single point]",
Cc1nc2ccccc2c(=O)n1-c1ccc(-c2ccccc2)cc1,2.13,,
CC/C(=N\N1CCCCCC1)c1c(O)n(-c2ccccc2C)c(=O)[nH]c1=O,22.6,"29100 nM [falling, single point]","461 nM [falling, single point]"
COC(=O)C1=C(c2ccc(OC)c(OC)c2)C[C@@H]2CC[C@H]1N2C(=O)NCCCOC(C)C,16.4,"6510 nM [rising, single point]",
Cc1cc(OCC(=O)N[C@@H](Cc2ccccc2)C(=O)O)c2c3c(c(=O)oc2c1)CCC3,9.18,,
[N-]=[N+]=CC(=O)OC[C@H](N)C(=O)O,33.6,"820 nM [falling, partial curve, poor fit]",
N#Cc1cc2c(nc1SCC(=O)Nc1cc(Cl)ccc1Cl)C1CCN2CC1,-42.1,"16400 nM [falling, single point]","16400 nM [falling, single point]"
Nc1c2c(nc3sc4c(c13)CCCC4)CCCC2,-30.4,"13000 nM [falling, partial curve, poor fit]","8200 nM [falling, partial curve, poor fit]"
Fc1ccc(C(OCCN2CCCC2)c2ccc(Br)cc2)cc1 (centres undefined),-0.103,"130 nM [rising, full curve, poor fit]",
CC1CN(CC(=O)c2ccccc2Cl)CC(C)O1 (centres undefined),-10.6,,
Cn1c(=O)oc2cc(S(=O)(=O)N3CCCc4ccccc43)ccc21,,"6510 nM [rising, full curve, poor fit]",
CCN(CC)CCNCC(=O)Nc1ccc(Cl)cc1C(=O)c1ccccc1,,"1640 nM [falling, partial curve]",
CC(C)(C)c1ccc(CN2C(=O)CN=C(c3ccccc3)c3ccccc32)cc1,-11.5,"5.8 nM [falling, full curve, poor fit]",
CCC(=Nc1ccc2c(c1)CCC2)c1c(O)n(-c2ccc(OC)cc2)c(=O)[nH]c1=O,-24.4,"731 nM [falling, full curve]","130 nM [falling, full curve, poor fit]"
CCN1C(=O)NC(=O)/C(=C\c2cn(CC(=O)N3CCCC3)c3ccccc23)C1=O,33.6,"5.17 nM [rising, full curve, poor fit]","65.1 nM [rising, full curve, poor fit]"
Cc1cccc(-n2c(O)c(C=NC34CN5CN(CN(C5)C3)C4)c(=O)[nH]c2=O)c1,65.8,,"29100 nM [rising, single point]"
C[N+]12CN3CN(CN(C3)C1)C2,-29.8,"25900 nM [falling, partial curve]","184 nM [falling, full curve]"
CC(=O)N1CN2CN(C1)CN(C(C)=O)C2,18,"5.17 nM [rising, full curve, poor fit]",
Cc1oc(-c2ccccc2)nc1CN1C(=O)CN=C(c2ccccc2)c2ccccc21,30.2,"6510 nM [rising, partial curve]","5800 nM [rising, partial curve, poor fit]"
O=C(CSC1c2ccccc2-c2ccccc21)N/N=C/c1ccccc1,-7.74,"146 nM [falling, partial curve, poor fit]",

# Random excerpt: two compounds from above.
SMILES,cell number change [%],AC50 [1],AC50 [2]
Nc1c2c(nc3sc4c(c13)CCCC4)CCCC2,-30.4,"13000 nM [falling, partial curve, poor fit]","8200 nM [falling, partial curve, poor fit]"
Fc1ccc(C(OCCN2CCCC2)c2ccc(Br)cc2)cc1 (centres undefined),-0.103,"130 nM [rising, full curve, poor fit]",
